Test results: patent EP4755449A2
These are yes or no findings as the source states them, for the method shown. Some results given as binding are weak or reduced against the parent protein; the word gives no strength. Sequences can lack the tags named with a protein. Blank lines part the entries; values can stand above or below the binder they belong to.

Key:
Test in all cases: Western blot
[1] = biological target: T1, GST-hMSTN 61-160aa (human) (UniProt O14793)
T1 sequence: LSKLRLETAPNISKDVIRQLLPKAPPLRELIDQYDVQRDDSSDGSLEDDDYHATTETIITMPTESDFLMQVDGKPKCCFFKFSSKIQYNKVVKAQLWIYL

[2] = biological target: T2, GST-hMSTN 81-180aa (human)
T2 sequence: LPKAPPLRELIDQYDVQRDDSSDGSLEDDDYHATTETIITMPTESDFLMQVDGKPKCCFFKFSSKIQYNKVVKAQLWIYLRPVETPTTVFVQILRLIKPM

[3] = biological target: T3, GST-hMSTN 21-120aa (human) (UniProt O14793)
T3 sequence: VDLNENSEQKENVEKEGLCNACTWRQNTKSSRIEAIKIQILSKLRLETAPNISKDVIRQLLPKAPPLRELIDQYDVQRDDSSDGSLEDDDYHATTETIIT

[4] = biological target: T4, GST-hMSTN 41-140aa (human) (UniProt O14793)
T4 sequence: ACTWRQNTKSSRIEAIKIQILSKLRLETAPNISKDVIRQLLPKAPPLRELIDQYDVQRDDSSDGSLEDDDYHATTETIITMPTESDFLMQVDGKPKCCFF

binding [1]: binds | binding [2]: binds | binding [3]: binds | binding [4]: binds
B1: MST1032 (as used in Example 26) (antibody, V domains shown)
VH: QSLEESGGRLVTPGGSLTVTCRVSGIDLSSYDISWVRQAPGKGLEWIGIISYAGSTYYASWAKGRFTISKTSTTVDLKMTSLTTEDTATYFCARGVPAYSTGGDLWGPGTLVTVSS
VL: AQVLTQTASSVSAAVGGTVTINCQSSQSVYDNNWLSWFQQKPGQPPKLLIYWASTLASGVPSRFKGSGSGTQFTLTISDLECDDAATYYCAGGYGGGLYAFGGGTKVEIK

binding [3]: binds
B2: MST1573 (antibody, human IgG1, kappa, V domains shown)
VH: QSVEESGGRLVTPGTPLTLTCTVSGIDLSSSSMIWVRQAPGEGLKYIGFISKSGYTYYASWAKGRFTISKTSTTVDLKITSPTTEDTATYFCARGGYSGDWDYFTLWGPGTLVTVSS
VL: DIVMTQTPASVEAAVGGTVTIKCQASESIGNALAWYQQKPGQPPKLLIYGAFNLESGVPSRFRGSGSGTEYTLTISDLECDDAATYYCQGYFWSSSTIYAFWAFGGGTKVEIKR

More lines, now with the values behind:

B3: MST1538 (antibody, human IgG1, kappa, V domains shown)
VH: QSLEESGGGLVKPGGTLTLTCKASGIDFSSYYYMCWVRQAPGKGLEWIACIYAGISGSTYYASWAKGRFTISKTSSTTVTLQMTSLTAADTATYFCARDPYHFDYGSLWGPGTLVTVSS
VL: ALVMTQTPASVSAAVGGTVTINCQASQSVYGGNELSWYQQEPGQPPKLLIYSASKLASGVPSRFKGSGSGTQFTLTISGVQCDDAAAYYCAGYRTYSDDDNAFGGGTKVEIKR
binding [3]: binds | binding [4]: binds

B4: MST1572 (antibody, human IgG1, kappa, V domains shown)
VH: QSVEESGGRLVTPGTPLTLTCTVSGFSLSSYAMSWVRQAPGKGLEWIGIIYGVGSTYYASWAKGRFTISKTSTTVDLKIASPTTEDTATYFCARDDYGWGYTNLWGPGTLVTVSS
VL: QVLTQTPSSVSAAVGGTVTINCQSSQSVYNNNYLAWFQQKPGQPPKLLIYDASKLASGVPSRFKGSGSGTQFTLTISGVQCDDAATYYCQGSYYSSGWYRAFGGGTKVEIKR
binding [3]: binds | binding [4]: binds
